This note sets out measurements from PubChem BioAssay AID248 (DTP/NCI, 2004).

This assay concerns L1210 leukemia ip in BDF1 mice, survival T/C. Briefly: NCI In Vivo Anticancer Drug Screen. Data for tumor model L1210 Leukemia (intraperitoneal) in B6D2F1 (BDF1) mice. The following applies: T/C endpoint: mean survival time, higher T/C = longer survival.
Where [1] appears, read: dose: 400.0 mg/kg/injection, schedule: Q01DX009 (ip), vehicle: saline.
[2] abbreviates: dose: 200.0 mg/kg/injection, schedule: Q01DX001 (ip), vehicle: carboxymethylcellulose (CMC).
Setting [3] is: dose: 400.0 mg/kg/injection, schedule: Q01DX001 (ip), vehicle: saline.
The mark [4] stands for this setting: dose: 3.12 mg/kg/injection, schedule: Q01DX009 (ip), vehicle: saline with Tween-80.
Setting [5] is: dose: 100.0 mg/kg/injection, schedule: Q01DX009 (ip), vehicle: saline with Tween-80.
Where [6] appears, read: dose: 200.0 mg/kg/injection, schedule: Q01DX009 (ip), vehicle: Klucel (hydroxypropylcellulose) (HPC).

The list is a part of this screen's results and no random one: it is rich in T/C values a quarter to a half above the control, in often repeated tests (any T/C) and in doses without a T/C. Other doses and runs of a compound stand elsewhere. T/C: endpoint of the treated group in % of that of the vehicle group. Some entries give survivors of the animals treated and no T/C: the source files T/C as zero there, which appears to mark a toxic dose or a test without result, not a measured value. Some survivor counts are full or nearly so, which does not show that the dose was tolerated: the source hardly ever lists a survival T/C far under the control, and the zero likely stands for such cases as well. Survivors were counted at the toxicity check, usually on the fifth day, unless a day is given; later deaths do not show. Schedules are NCI's codes, read here as Q, the interval in days (D) or hours (H), X, the number of doses. Some doses were run more than once; the results are listed from low to high. For survival time, the PubChem record calls one and a half times the control and up active, and a quarter to a half above the control has no call in these data; cut-offs in other NCI protocols can differ. Some T/C values carry the count of animals alive at the toxicity check (mostly the fifth day); where none is given, no animal had died by that day.

For the compound `CC(C)CCNc1ncnc2[nH]ncc12`, the survivor count is 3 of 6 (dose: 75.0 mg/kg/injection, schedule: Q01DX009 (ip), vehicle: Klucel (hydroxypropylcellulose) (HPC)); 0 of 6 (dose: 115.0 mg/kg/injection, schedule: Q01DX009 (ip), vehicle: Klucel (hydroxypropylcellulose) (HPC)); 0 of 6 (dose: 170.0 mg/kg/injection, schedule: Q01DX009 (ip), vehicle: Klucel (hydroxypropylcellulose) (HPC)).
Regarding `CCCCNP(=O)(OCC)OCC`, the survivor count under setting [1] is on record as 0 of 6 and the survivor count (dose: 400.0 mg/kg/injection, schedule: Q04DX003 (ip), vehicle: saline) is 2 of 6.
In the case of `COc1cc2c(cc1OC)C(OC)N(C)c1c-2ccc2cc(OC)c(OC)cc12` (stereo not drawn), the T/C runs as follows: (dose: 100.0 mg/kg/injection, schedule: Q01DX009 (ip), vehicle: water) 134 % of control; (dose: 200.0 mg/kg/injection, schedule: Q01DX009 (ip), vehicle: water) 127 and 139 % of control.
`O=C(OCCl)c1ccc(Cl)c(Cl)c1`: the survivor count was 6 of 6 (dose: 100.0 mg/kg/injection, schedule: Q04DX003 (ip), vehicle: Klucel (hydroxypropylcellulose) (HPC)); 6 of 6 (dose: 200.0 mg/kg/injection, schedule: Q04DX003 (ip), vehicle: Klucel (hydroxypropylcellulose) (HPC)); 4 of 6 (dose: 400.0 mg/kg/injection, schedule: Q04DX003 (ip), vehicle: Klucel (hydroxypropylcellulose) (HPC)).
For the compound `C[n+]1csc(=S)[nH]1`, the survivor count is listed as 3 of 6 (dose: 200.0 mg/kg/injection, schedule: Q01DX009 (ip), vehicle: saline) and 0 of 6 under setting [1].
With `NC(N)=NCC(CCN1CCCCC1)c1cccc2ccccc12` (stereo not drawn), the survivor count reads like this: (dose: 25.0 mg/kg/injection, schedule: Q04DX002 (ip), vehicle: saline) 3 of 3; (dose: 50.0 mg/kg/injection, schedule: Q04DX002 (ip), vehicle: saline) 2 of 3; (dose: 100.0 mg/kg/injection, schedule: Q04DX002 (ip), vehicle: saline) 0 of 3.
Take `O=C(O)C1=C(C(=O)O)C2CCC1C2`: where the note is “dose: 400.0 mg/kg/injection, schedule: Q04DX003 (ip), vehicle: saline with Tween-80”, the survivor count is 3 of 3.
Turning to `COc1cc(N(CCCl)CCCl)c(OC)cc1C=Nc1ccc(-c2csc(Cc3ccccc3)n2)c(Cl)c1`, the T/C was 148 % of control (dose: 75.0 mg/kg/injection, schedule: Q01DX001 (ip), vehicle: carboxymethylcellulose (CMC)); 130 % of control (dose: 132.0 mg/kg/injection, schedule: Q01DX001 (ip), vehicle: carboxymethylcellulose (CMC)); 136 % of control under setting [2]. Moreover, the survivor count is, setting by setting: (dose: 200.0 mg/kg/injection, schedule: Q01DX009 (ip), vehicle: carboxymethylcellulose (CMC)) 2 of 6; (dose: 300.0 mg/kg/injection, schedule: Q01DX009 (ip), vehicle: carboxymethylcellulose (CMC)) 1 of 6.
`CCOC(=O)c1ccc(NC(=S)NC(=O)c2cccc([N+](=O)[O-])c2)cc1`: the survivor count is 6 of 6 (dose: 100.0 mg/kg/injection, schedule: Q01DX001 (ip), vehicle: saline with Tween-80); 1 of 3 and 4 of 6 under setting [1].
For the compound `NC(CSC(c1ccccc1)(c1ccccc1)c1ccc(CO)cc1)C(=O)O` (stereo not drawn), the T/C runs as follows: (dose: 85.0 mg/kg/injection, schedule: Q01DX009 (ip), vehicle: saline) 132 % of control; (dose: 175.0 mg/kg/injection, schedule: Q01DX009 (ip), vehicle: saline) 127 and 146 % of control; (dose: 265.0 mg/kg/injection, schedule: Q01DX009 (ip), vehicle: saline) 134 and 146 % of control.
On to `COc1cc2c(cc1OC)C(Cc1ccc(O)cc1)N(C)CC2` (stereo not drawn), for which the survivor count under setting [3] was 2 of 4.
For `ClCc1c2ccccc2c(CCl)c2ccccc12`, the T/C by setting is: under setting [4], 136 % of control [4 of 6 alive]; (dose: 8.0 mg/kg/injection, schedule: Q01DX009 (ip), vehicle: carboxymethylcellulose (CMC)) 125 % of control; (dose: 133.4 mg/kg/injection, schedule: Q01DX001 (ip), vehicle: saline) 126 % of control; (dose: 200.0 mg/kg/injection, schedule: Q01DX001 (ip), vehicle: saline) 130 % of control. Further, the survivor count is on record as 6 of 6 under setting [4]; 2 of 6 (dose: 6.25 mg/kg/injection, schedule: Q01DX009 (ip), vehicle: saline with Tween-80); 5 of 6 (dose: 12.5 mg/kg/injection, schedule: Q01DX009 (ip), vehicle: saline with Tween-80); 2 of 6 (dose: 14.0 mg/kg/injection, schedule: Q01DX015 (ip), vehicle: carboxymethylcellulose (CMC)); 2 of 6 (dose: 24.0 mg/kg/injection, schedule: Q01DX015 (ip), vehicle: carboxymethylcellulose (CMC)); 0 of 6 (dose: 25.0 mg/kg/injection, schedule: Q01DX009 (ip), vehicle: saline with Tween-80). Also, the survivor count is, setting by setting: (dose: 40.0 mg/kg/injection, schedule: Q01DX009 (ip), vehicle: carboxymethylcellulose (CMC)) 6 of 6; (dose: 40.0 mg/kg/injection, schedule: Q01DX015 (ip), vehicle: carboxymethylcellulose (CMC)) 2 of 6; (dose: 50.0 mg/kg/injection, schedule: Q01DX009 (ip), vehicle: saline with Tween-80) 0 of 6; (dose: 67.0 mg/kg/injection, schedule: Q01DX015 (ip), vehicle: carboxymethylcellulose (CMC)) 3 of 6; under setting [5], 0 of 6.
Turning to `CCO/C=C1\SC(=S)N(c2ccc(O)cc2)C1=O`, the survivor count under setting [6] is recorded as 6 of 6; the survivor count (dose: 400.0 mg/kg/injection, schedule: Q01DX009 (ip), vehicle: Klucel (hydroxypropylcellulose) (HPC)) is listed as 1 of 6; the survivor count (dose: 400.0 mg/kg/injection, schedule: Q01DX009 (ip), vehicle: other) is 3 of 6.
In the case of `NC(CSS(=O)(=O)O)=NCCCc1ccccc1`, the survivor count is given as 0 of 3 (dose: 50.0 mg/kg/injection, schedule: Q04DX002 (ip), vehicle: Klucel (hydroxypropylcellulose) (HPC)); 3 of 3 (dose: 100.0 mg/kg/injection, schedule: Q04DX002 (ip), vehicle: Klucel (hydroxypropylcellulose) (HPC)); 2 of 3 (dose: 200.0 mg/kg/injection, schedule: Q04DX002 (ip), vehicle: Klucel (hydroxypropylcellulose) (HPC)); 0 of 3 (dose: 400.0 mg/kg/injection, schedule: Q04DX002 (ip), vehicle: Klucel (hydroxypropylcellulose) (HPC)).
For the compound `Nc1ncnc2n[nH]nc12`, the survivor count under setting [6] is 0 of 6.
Regarding `CCCCCC(O)C1C(=O)OC(C)C(O)/C=C/C=C/C=C/C=C\C=C(\C)C(O)CC(O)CC(O)CC(O)CC(O)CC(O)CC1O` (stereo not drawn), the survivor count (dose: 100.0 mg/kg/injection, schedule: Q01DX001 (ip), vehicle: carboxymethylcellulose (CMC)) is 0 of 4; the survivor count under setting [2] is 0 of 4; the survivor count (dose: 400.0 mg/kg/injection, schedule: Q01DX001 (ip), vehicle: carboxymethylcellulose (CMC)) is recorded as 1 of 4.
For `NC1c2ccccc2CC1C(=O)O` (stereo not drawn), the survivor count under setting [3] is 1 of 3.
For `CN(C)c1ccc(/C=N/NC(=O)c2ccc(O)cc2)c(Cl)c1`, the T/C under setting [5] is listed as 92, 96, 97, 106 % of control. For the same compound, the survivor count reads like this: (dose: 200.0 mg/kg/injection, schedule: Q01DX009 (ip), vehicle: saline with Tween-80) 3 of 3 and 6 of 6; (dose: 400.0 mg/kg/injection, schedule: Q01DX009 (ip), vehicle: saline with Tween-80) 2 of 3.
Consider `COC(=O)c1ccc2ccccc2n1`, for which the survivor count (dose: 300.0 mg/kg/injection, schedule: Q01DX001 (ip), vehicle: saline) was 3 of 6.
